# ± gives the standard deviation of the averaged measurements. Only a part is listed here, and it is no random draw.
# Chains of the proteins cited; added tags and fusions are not shown. Lines headed by an entry give the natural chain unless they say otherwise; changes in a name come on top.
# UniProt Q643R3: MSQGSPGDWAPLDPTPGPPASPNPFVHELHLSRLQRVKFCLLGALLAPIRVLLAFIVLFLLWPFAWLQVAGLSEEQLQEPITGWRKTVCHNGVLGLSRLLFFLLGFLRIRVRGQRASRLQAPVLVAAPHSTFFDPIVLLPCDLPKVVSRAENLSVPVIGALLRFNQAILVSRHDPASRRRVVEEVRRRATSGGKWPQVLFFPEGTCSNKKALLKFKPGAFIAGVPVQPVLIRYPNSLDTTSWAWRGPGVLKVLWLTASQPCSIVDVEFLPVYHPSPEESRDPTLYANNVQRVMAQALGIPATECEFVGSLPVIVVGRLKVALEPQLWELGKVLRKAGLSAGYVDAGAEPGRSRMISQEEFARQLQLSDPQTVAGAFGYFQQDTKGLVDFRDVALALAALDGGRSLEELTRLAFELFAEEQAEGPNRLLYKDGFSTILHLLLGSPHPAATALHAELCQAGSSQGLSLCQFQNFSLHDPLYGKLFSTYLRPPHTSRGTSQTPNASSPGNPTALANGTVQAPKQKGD
# UniProt Q4KMP7: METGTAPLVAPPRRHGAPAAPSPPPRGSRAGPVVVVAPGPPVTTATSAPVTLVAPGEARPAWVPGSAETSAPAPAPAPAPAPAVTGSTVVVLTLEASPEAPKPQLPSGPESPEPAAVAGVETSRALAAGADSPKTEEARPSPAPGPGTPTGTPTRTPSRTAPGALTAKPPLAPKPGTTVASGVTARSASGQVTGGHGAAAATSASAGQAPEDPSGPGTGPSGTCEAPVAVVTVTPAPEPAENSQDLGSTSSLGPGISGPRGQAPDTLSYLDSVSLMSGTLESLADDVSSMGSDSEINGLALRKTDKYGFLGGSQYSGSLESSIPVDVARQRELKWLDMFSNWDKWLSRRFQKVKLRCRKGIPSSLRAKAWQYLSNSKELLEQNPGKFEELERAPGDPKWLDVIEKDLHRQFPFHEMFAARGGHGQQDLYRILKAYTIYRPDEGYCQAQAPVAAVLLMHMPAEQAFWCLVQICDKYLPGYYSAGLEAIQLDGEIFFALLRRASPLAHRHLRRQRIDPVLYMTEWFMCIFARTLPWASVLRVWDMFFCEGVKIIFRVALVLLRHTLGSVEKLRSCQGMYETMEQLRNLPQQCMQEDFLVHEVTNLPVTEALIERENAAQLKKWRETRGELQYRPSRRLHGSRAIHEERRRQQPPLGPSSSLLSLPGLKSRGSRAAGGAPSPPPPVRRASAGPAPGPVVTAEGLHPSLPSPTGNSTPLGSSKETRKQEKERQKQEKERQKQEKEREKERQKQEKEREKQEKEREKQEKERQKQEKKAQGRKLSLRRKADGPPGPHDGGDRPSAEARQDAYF
# UniProt Q6P4I2: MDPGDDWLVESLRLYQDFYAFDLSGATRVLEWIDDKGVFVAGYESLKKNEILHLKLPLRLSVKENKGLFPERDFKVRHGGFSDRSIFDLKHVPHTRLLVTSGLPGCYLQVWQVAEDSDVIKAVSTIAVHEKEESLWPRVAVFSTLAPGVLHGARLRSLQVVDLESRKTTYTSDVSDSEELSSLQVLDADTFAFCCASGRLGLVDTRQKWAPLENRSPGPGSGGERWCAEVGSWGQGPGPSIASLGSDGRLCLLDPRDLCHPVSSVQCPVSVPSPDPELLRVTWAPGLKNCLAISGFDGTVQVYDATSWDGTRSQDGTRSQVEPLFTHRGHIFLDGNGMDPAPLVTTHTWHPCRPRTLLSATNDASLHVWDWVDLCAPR
# UniProt Q6PCB7: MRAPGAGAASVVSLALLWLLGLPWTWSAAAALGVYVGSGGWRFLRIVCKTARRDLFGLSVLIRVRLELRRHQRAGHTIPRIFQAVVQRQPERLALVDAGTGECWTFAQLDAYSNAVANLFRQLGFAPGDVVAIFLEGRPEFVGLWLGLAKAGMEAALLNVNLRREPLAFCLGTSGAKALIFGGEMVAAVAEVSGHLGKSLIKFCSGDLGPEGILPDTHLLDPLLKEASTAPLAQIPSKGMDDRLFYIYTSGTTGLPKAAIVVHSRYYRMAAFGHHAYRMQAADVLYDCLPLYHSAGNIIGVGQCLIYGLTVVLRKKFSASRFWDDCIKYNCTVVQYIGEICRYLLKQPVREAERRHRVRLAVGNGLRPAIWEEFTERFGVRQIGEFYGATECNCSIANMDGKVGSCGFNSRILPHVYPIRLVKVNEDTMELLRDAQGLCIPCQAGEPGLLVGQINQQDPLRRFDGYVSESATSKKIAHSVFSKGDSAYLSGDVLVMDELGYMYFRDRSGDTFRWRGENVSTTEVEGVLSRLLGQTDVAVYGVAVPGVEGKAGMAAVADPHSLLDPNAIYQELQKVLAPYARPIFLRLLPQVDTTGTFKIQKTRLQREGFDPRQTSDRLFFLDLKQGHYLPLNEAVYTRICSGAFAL
# UniProt Q5JVF3: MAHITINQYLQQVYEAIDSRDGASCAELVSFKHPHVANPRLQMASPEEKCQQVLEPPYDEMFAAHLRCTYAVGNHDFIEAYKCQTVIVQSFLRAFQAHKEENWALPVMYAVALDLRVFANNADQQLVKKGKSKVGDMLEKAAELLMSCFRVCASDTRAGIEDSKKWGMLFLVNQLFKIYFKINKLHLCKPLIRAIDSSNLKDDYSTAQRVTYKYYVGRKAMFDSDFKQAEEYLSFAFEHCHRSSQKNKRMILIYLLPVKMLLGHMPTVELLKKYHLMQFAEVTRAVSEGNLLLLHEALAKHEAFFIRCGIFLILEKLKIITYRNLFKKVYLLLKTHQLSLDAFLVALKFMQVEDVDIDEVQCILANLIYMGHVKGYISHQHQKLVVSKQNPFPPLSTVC
# UniProt Q5U5X0: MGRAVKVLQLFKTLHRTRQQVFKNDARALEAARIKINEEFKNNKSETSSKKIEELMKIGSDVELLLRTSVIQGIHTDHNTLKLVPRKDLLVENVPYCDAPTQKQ
# UniProt Q5F1R6: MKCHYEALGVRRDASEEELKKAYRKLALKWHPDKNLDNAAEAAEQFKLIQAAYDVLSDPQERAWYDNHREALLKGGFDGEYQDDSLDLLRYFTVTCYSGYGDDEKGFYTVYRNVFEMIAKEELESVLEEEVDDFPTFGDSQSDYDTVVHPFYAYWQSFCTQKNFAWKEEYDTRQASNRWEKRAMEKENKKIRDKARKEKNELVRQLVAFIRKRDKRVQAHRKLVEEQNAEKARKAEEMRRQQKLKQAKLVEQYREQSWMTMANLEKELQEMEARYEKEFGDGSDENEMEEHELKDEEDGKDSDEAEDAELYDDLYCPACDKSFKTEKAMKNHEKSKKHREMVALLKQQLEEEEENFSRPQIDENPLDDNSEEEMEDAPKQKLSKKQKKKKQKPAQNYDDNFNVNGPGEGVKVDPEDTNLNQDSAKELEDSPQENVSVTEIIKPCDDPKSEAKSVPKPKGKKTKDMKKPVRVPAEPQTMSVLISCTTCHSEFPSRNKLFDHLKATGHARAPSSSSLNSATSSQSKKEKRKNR
# UniProt Q66LE6: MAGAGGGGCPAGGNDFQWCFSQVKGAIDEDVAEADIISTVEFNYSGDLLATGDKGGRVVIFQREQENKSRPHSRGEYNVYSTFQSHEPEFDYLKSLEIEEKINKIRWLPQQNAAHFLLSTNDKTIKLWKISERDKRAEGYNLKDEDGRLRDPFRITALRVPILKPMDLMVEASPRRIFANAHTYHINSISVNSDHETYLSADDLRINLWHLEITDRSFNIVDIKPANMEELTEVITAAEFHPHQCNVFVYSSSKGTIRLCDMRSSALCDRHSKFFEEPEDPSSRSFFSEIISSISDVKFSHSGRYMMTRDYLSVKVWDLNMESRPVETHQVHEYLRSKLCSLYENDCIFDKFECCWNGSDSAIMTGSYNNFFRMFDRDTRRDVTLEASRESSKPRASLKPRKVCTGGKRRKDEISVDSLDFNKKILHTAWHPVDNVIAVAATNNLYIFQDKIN
# UniProt P29144: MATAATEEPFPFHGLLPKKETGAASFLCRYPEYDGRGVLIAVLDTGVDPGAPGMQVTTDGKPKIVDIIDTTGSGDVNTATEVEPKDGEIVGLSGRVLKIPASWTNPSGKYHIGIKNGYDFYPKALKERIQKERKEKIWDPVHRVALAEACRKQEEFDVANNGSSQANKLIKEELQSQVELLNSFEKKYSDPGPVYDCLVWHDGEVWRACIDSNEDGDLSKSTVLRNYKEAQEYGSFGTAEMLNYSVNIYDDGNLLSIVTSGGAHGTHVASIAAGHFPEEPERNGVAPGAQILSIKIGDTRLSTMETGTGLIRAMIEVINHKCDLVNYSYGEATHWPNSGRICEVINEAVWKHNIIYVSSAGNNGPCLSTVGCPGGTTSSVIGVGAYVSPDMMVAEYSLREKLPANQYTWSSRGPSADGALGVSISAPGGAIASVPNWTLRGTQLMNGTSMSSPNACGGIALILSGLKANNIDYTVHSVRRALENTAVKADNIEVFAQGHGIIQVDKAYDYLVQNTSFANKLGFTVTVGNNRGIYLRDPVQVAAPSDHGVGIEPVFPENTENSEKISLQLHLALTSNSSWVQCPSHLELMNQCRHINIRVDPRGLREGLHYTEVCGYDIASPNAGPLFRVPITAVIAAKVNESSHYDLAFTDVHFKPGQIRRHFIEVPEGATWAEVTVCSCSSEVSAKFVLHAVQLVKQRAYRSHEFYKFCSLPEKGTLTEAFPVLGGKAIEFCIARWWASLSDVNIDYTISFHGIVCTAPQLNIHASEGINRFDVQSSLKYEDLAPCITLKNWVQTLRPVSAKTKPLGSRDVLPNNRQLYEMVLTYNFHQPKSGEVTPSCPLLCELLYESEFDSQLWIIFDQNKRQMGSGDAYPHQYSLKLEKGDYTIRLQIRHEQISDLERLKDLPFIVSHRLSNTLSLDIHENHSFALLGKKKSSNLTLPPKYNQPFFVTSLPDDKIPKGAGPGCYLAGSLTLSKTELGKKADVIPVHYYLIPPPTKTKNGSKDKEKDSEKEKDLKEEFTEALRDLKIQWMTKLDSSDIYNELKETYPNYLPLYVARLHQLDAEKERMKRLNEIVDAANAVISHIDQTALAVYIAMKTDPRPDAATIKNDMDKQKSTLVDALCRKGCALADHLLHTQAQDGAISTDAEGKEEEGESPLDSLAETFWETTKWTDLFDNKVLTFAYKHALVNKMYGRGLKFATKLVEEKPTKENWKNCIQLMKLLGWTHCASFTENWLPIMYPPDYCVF
# UniProt Q659A1: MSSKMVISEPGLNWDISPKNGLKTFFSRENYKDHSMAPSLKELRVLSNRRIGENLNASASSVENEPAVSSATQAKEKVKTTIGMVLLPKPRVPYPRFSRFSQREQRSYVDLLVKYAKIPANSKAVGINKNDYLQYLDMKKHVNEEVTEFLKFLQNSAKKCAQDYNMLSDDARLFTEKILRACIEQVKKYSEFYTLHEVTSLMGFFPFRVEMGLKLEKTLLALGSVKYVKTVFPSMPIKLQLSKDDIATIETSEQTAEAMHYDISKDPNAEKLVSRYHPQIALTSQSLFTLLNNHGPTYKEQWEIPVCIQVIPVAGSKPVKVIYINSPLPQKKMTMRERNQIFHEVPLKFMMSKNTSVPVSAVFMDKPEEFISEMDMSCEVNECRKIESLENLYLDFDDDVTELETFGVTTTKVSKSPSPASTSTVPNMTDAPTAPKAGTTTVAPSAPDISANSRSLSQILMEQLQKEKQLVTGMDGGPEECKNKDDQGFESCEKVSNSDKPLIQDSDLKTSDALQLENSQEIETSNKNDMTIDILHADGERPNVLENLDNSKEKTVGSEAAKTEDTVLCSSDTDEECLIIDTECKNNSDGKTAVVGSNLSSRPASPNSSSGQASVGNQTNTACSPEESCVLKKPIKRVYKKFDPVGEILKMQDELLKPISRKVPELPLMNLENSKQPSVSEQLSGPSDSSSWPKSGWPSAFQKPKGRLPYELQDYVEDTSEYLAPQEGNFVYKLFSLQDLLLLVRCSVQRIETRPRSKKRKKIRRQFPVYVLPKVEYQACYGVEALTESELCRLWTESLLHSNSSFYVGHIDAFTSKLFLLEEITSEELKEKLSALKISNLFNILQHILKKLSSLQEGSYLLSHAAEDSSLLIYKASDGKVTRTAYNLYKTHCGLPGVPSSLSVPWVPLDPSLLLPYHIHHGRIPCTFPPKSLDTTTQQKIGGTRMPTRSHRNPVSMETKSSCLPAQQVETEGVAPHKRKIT
# UniProt Q6P444: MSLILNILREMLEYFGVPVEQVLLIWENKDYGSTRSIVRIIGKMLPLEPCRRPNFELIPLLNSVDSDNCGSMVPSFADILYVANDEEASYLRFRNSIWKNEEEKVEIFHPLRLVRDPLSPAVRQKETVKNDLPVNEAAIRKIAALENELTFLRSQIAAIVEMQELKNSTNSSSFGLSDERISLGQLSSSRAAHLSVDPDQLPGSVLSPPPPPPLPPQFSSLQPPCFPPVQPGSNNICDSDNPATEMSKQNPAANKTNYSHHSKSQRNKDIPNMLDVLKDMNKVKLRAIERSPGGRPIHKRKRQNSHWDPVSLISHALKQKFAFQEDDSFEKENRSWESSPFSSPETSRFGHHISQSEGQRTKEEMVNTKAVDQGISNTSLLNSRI
# Compound: Nc1ncnc2c1ncn2[C@@H]1O[C@H](COP(=O)(O)OP(=O)(O)OP(=O)(O)O)[C@@H](O)[C@H]1O [adenosine triphosphate]
# Assay: NP40-soluble protein abundance relative to vehicle (solubility fold change) (ratio); higher = more soluble protein in presence of ATP
# Outline: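 Values are fold changes against the detergent-processed vehicle, based on vsn-normalised intensities. Jurkat crude lysate was treated at eight concentrations from 0.1 to 10 mM (10 min at room temperature, then 3 min at 37 °C), solubilised with 0.8% NP40 and benzonase, ultracentrifuged and analysed by TMT-labelled LC-MS/MS over three independent experiments.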
Target,NP40-soluble protein abundance (concentration: 1mM),NP40-soluble protein abundance (concentration: 2mM),NP40-soluble protein abundance (concentration: 4mM),NP40-soluble protein abundance (concentration: 6mM),NP40-soluble protein abundance (concentration: 8mM),NP40-soluble protein abundance (concentration: 10mM)
RARS2 (UniProt Q5T160),1.02 ± 0.12,1 ± 0.069,0.995 ± 0.035,0.898 ± 0.087,1.02 ± 0.046,0.985 ± 0.011
LPCAT4 (UniProt Q643R3),1.02 ± 0.084,0.966 ± 0.067,1.03 ± 0.07,0.956 ± 0.065,0.998 ± 0.033,1.02 ± 0.072
CROCC (UniProt Q5TZA2),0.944 ± 0.083,0.974 ± 0.085,0.935 ± 0.058,0.991 ± 0.061,0.921 ± 0.035,0.91 ± 0.093
UniProt Q5T4F4-2|Q5T4F4-7|Q5T4F4-8|Q5T4F4 and related entries,0.946 ± 0.14,0.956 ± 0.13,0.938 ± 0.069,0.923 ± 0.15,0.924 ± 0.18,1.02 ± 0.065
UniProt Q6NYC1 and related entries,1.023 ± 0.0072,1.03 ± 0.037,0.993 ± 0.043,1.01 ± 0.024,1.01 ± 0.027,1.01 ± 0.013
UniProt Q684P5-2|Q684P5-3|Q684P5,0.962 ± 0.028,0.975 ± 0.014,0.954 ± 0.0091,0.968 ± 0.015,0.939 ± 0.012,0.941 ± 0.012
TBC1D10B (UniProt Q4KMP7),1.02 ± 0.04,1.02 ± 0.062,1.04 ± 0.041,1.04 ± 0.076,0.997 ± 0.049,1.04 ± 0.018
Q5VYH9 and related entries (UniProt Q9HBG7),0.919 ± 0.033,0.958 ± 0.036,0.994 ± 0.028,0.9353 ± 0.0092,0.901 ± 0.054,0.915 ± 0.084
WDR73 (UniProt Q6P4I2),1.03 ± 0.1,1 ± 0.063,1.02 ± 0.047,0.985 ± 0.1,1.02 ± 0.081,0.987 ± 0.054
UniProt Q5JTH9 and related entries,0.992 ± 0.024,1.02 ± 0.038,0.995 ± 0.073,1.028 ± 0.007,1.02 ± 0.065,1.1 ± 0.045
UniProt Q6PCB7 and related entries,1.2 ± 0.081,1.08 ± 0.13,1.16 ± 0.018,1.18 ± 0.14,1.16 ± 0.067,1.19 ± 0.028
UniProt Q5JVF3 and related entries,1.04 ± 0.13,0.999 ± 0.098,1.01 ± 0.088,0.973 ± 0.14,1.07 ± 0.084,1.06 ± 0.09
LYRM7 (UniProt Q5U5X0),0.903 ± 0.16,0.893 ± 0.13,0.888 ± 0.11,0.869 ± 0.14,0.875 ± 0.11,0.775 ± 0.2
TRMT12 (UniProt Q53H54),1.01 ± 0.12,1.05 ± 0.023,1.07 ± 0.098,1 ± 0.11,0.979 ± 0.063,1.04 ± 0.046
UniProt Q5F1R6 and related entries,1.01 ± 0.051,1.09 ± 0.085,1.14 ± 0.071,1.12 ± 0.039,1.19 ± 0.017,1.24 ± 0.073
LARP2 (UniProt Q659C4),1.08 ± 0.17,1.04 ± 0.22,1.1 ± 0.23,1.07 ± 0.17,1.05 ± 0.28,1.09 ± 0.21
UniProt Q4V328 and related entries,0.97 ± 0.043,0.9602 ± 0.0086,0.958 ± 0.0086,0.979 ± 0.014,0.927 ± 0.02,0.921 ± 0.025
Q5STZ8 and related entries (UniProt Q8NE71),1.02 ± 0.015,1.02 ± 0.025,1.05 ± 0.037,1.07 ± 0.065,1.08 ± 0.054,1.09 ± 0.046
CEP350 (UniProt Q5VT06),0.975 ± 0.073,0.975 ± 0.17,0.892 ± 0.13,0.917 ± 0.2,0.935 ± 0.093,0.939 ± 0.13
HECTD3 (UniProt Q5T447),1.04 ± 0.069,1.01 ± 0.052,1.02 ± 0.036,0.962 ± 0.019,1.02 ± 0.017,1.02 ± 0.06
PPP2R2D (UniProt Q66LE6),1.08 ± 0.11,1.01 ± 0.055,1.03 ± 0.068,0.988 ± 0.072,1.04 ± 0.098,1.02 ± 0.055
Q5VZU9 and related entries (UniProt P29144),1.05 ± 0.097,0.989 ± 0.055,0.965 ± 0.039,0.943 ± 0.05,1.01 ± 0.023,0.97 ± 0.045
UniProt Q5MIZ7-2|Q5MIZ7-3,0.987 ± 0.021,0.973 ± 0.018,0.965 ± 0.018,1.01 ± 0.031,0.956 ± 0.014,0.97 ± 0.017
UniProt Q5T5Y3 and related entries,1.01 ± 0.062,1 ± 0.049,1.01 ± 0.041,1.04 ± 0.057,0.999 ± 0.059,1 ± 0.05
UniProt Q5TCQ9 and related entries,1.11 ± 0.18,1.04 ± 0.21,1.05 ± 0.2,1.11 ± 0.25,1.03 ± 0.29,1.07 ± 0.16
UniProt Q5T0B9,0.95 ± 0.11,0.985 ± 0.059,1.01 ± 0.051,0.985 ± 0.19,0.93 ± 0.044,0.929 ± 0.072
MED27 (UniProt Q6P2C8),1.01 ± 0.066,1.01 ± 0.16,0.936 ± 0.15,0.988 ± 0.15,1 ± 0.17,0.991 ± 0.096
UniProt Q659A1,0.956 ± 0.1,1.09 ± 0.088,1.05 ± 0.03,1.11 ± 0.1,1.07 ± 0.017,1.08 ± 0.071
AMOT (UniProt Q4VCS5),0.934 ± 0.047,0.988 ± 0.099,1.03 ± 0.031,1.06 ± 0.099,1.04 ± 0.021,1.09 ± 0.099
UniProt Q6P444,0.886 ± 0.073,0.84 ± 0.083,0.989 ± 0.017,0.948 ± 0.069,0.986 ± 0.074,1.05 ± 0.015

# Fetched one by one from the entries so far, 2 records:
Target,NP40-soluble protein abundance (concentration: 1mM),NP40-soluble protein abundance (concentration: 2mM),NP40-soluble protein abundance (concentration: 4mM),NP40-soluble protein abundance (concentration: 6mM),NP40-soluble protein abundance (concentration: 8mM),NP40-soluble protein abundance (concentration: 10mM)
WDR73 (UniProt Q6P4I2),1.03 ± 0.1,1 ± 0.063,1.02 ± 0.047,0.985 ± 0.1,1.02 ± 0.081,0.987 ± 0.054
UniProt Q6P444,0.886 ± 0.073,0.84 ± 0.083,0.989 ± 0.017,0.948 ± 0.069,0.986 ± 0.074,1.05 ± 0.015

# Source: the supplement of paper PMC6411743
